Two molecules from publication PMC7179958 (CPT: Pharmacometrics & Systems Pharmacology, 2020) can be followed below.

In this series the test system is human hepatocytes. As to the kind of experiment: Uptake of pitavastatin and eltrombopag in cryopreserved human hepatocytes (oil spin method), comeasurement, micro‐rate constant mechanistic model. It counts as in vitro ADME. How it is done:
Human hepatocytes were obtained from BioIVT (Brussels, Belgium; lot number: LYB; 10 donor LiverPool (8 Caucasians, 1 African American, and 1 Hispanic) and thawed according to supplier guidelines in Leibovitz L15 medium. Hepatocytes were kept on ice prior to use and were used within 3 hours of defrosting.
Cells were separated using an oil spin method similar to the literature. ^11 , ^17 After separation, the tubes were frozen on dry ice and the bottom layer was cut off.
A dilution factor of 100 was used to scale from pmol/mL/1 × 10^5 cells to nmol/mL/1 × 10^6 cells.
Passive rate constants for movement into and out of the cell (k f.X and k bX, respectively) as well as uptake transporter‐mediated rate constants for association to the transporter (k aX) and dissociation (k dX) and translocation (k tX) from the transporter into the medium and cell, respectively. […] The sets of ODEs for all the models (models 1–4; Table 1 ) tested for structural identifiability and used for parameter estimation are included in the Supplemental Material .
Parameter estimation was conducted within Monolix 2018 R2 (Lixoft, Antony, France) for each concentration and experiment as an individual data set, where to ensure positivity, a log‐normal distribution was assumed for each parameter, with a proportional residual error model for the observations.
Hepatocyte Incubations. […] Eltrombopag was dissolved in DMSO to give 30 µmol/mL, then diluted 333-fold to 90 nmol/mL in Leibovitz L15 medium. […] Briefly, 0.5 mL microtubes (12049877, Thermo-Fisher Scientific, Gothenburg, Sweden) layered with 15 µL of 4 % cesium chloride onto which 140 µL of 8:2 silicone oil: mineral oil, with oil red O was added. Samples were taken by transferring 100 µL of hepatocyte suspension into the microtube and spun for 15 s in a Minispin centrifuge (Eppendorf, Horsholm, Denmark), during which time the hepatocytes passed through the oil into the cesium chloride bottom layer. […]

On to `CC1=NN(c2ccc(C)c(C)c2)C(=O)/C1=N\Nc1cccc(-c2cccc(C(=O)O)c2)c1O` [eltrombopag, Eltrombopag], for which the “k bE relative to k bP” value (passive rate constant out of the cell, eltrombopag greater) was “twofold”. For the molecule `O=C(O)C[C@H](O)C[C@H](O)/C=C/c1c(C2CC2)nc2ccccc2c1-c1ccc(F)cc1` [pitavastatin, pitavastatin calcium], the “times k fP lower than k fE” value (passive rate into the cell, pitavastatin compared with eltrombopag) was 91 times. In addition, the “times k fP lower than k bP” value (pitavastatin passive rate constant into vs out of the cell) is 380 times.
